In patent publication US7053249B2, “Metal chelates and methods of using them for time-resolved fluorescence” (IDEXX Laboratories, Inc., priority 2002, dated 2006):

Test: excitation and emission spectra of europium(III) chelates in 0.1 M borate buffer pH 9.0 with TOPO
Format: physicochemical
Conditions: Eu(III) chloride chelate, 0.1 M borate buffer pH 9.0, in presence of TOPO

Compound | peak excitation wavelength [nm]
1,3-dinaphthyl-1,3-propanedione [compound 3] | 400
1-phenyl-3-naphthyl-1,3-propanedione [compound 2] | 390
O=C(CC(=O)C(F)(F)F)c1ccc2ccccc2c1 [compound 1, 2-naphthoyltrifluoroacetone, reference compound] | 330
